# According to paper PMC9323733, “Efficacy of Vafidemstat in Experimental Autoimmune Encephalomyelitis Highlights the KDM1A/RCOR1/HDAC Epigenetic Axis in Multiple Sclerosis” (Pharmaceutics, 2022):
# Legend:
# spinal cord of EAE mice = assay: Microarray, spinal cord of EAE mice, effector phase (E), 24 h after treatment; ORY-2001 0.5 mg/kg, FTY720 1.0 mg/kg; assay type: in vivo, mouse
# Protocol: (§1) We evaluated differences in gene expression induced by the treatment using real-time PCR and by microarray hybridization analysis. First, total RNA was isolated from brain and spinal cord segments from EAE mice using Qiazol™ and the RNeasy MiniKit™ extraction kit (Qiagen). Evaluation of RNA quality was performed with the Agilent 2100 bioanalyzer and NanoDrop™ ND-1000 (Thermo Scientific, Dartford, Kent, UK). After DNAse I treatment, RNA (1 µg/sample) was reverse transcribed using RevertAid First strand cDNA Synthesis kit (Fermentas) and random hexamer primers. […]
# (§2) For the gene expression studies, data from microarray assays were normalized by modified nonlinear Q-splines normalization method and Log2(Sample/Vehicle) values calculated without background correction (which permits robust selection of differentially expressed genes yet may lead to sub-estimation of the magnitude of change for genes expressed near the detection limit). Differential expression was assessed with the proprietary Polyphemus software using robust statistics on the average technical replicates (3 replicates/gene oligo datapoint) after removing eventual outlier points (caused by dust or array imperfections). […]
# brain of EAE mice = assay: Microarray, brain of EAE mice, effector phase (E), 24 h after treatment; ORY-2001 0.5 mg/kg, FTY720 1.0 mg/kg; assay type: in vivo, mouse
# Protocol: as §1, §2
structure (smiles),measurement,setting,value
Nc1nnc(CN[C@@H]2C[C@H]2c2ccc(OCc3ccccc3)cc2)o1 [ORY-2001],"slope of regression line, Log2(ORY-2001/Veh) versus Log2(FTY720/Veh)",spinal cord of EAE mice,0.827
same,"slope of regression line, Log2(ORY-2001/Veh) versus Log2(FTY720/Veh)",brain of EAE mice,0.7308
